Measurements reported in publication PMC5626749.
No constants are given. Whether binding was seen depends on the method and setting. Binding seen in cells or lysates may run through a third protein. Some entries that bind do so weakly or less than the wild type.

Chains of the proteins cited; added tags and fusions are not shown.
UniProt O88522: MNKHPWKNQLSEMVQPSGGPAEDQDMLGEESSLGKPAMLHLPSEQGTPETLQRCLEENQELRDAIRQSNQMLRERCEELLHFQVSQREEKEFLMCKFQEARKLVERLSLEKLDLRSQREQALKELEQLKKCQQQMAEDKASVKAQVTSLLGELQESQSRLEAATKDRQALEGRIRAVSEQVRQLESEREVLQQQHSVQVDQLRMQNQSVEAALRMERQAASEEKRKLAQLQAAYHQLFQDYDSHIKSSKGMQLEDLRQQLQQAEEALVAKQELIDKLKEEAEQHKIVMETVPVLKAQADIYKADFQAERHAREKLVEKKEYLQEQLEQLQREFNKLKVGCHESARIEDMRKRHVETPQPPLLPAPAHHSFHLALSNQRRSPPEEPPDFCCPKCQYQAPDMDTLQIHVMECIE

Assays:
[1] = molecular target: T1, Tumor Necrosis Factor Receptor Associated Factor 6 (TRAF6) (UniProt P70196); test: co-IP; Plat-E cells co-transfected with pMX-NUMBL and pMX-TRAF6 or pMX-NEMO; lysis in 10 mM Tris-HCl pH 8.0, 1 mM EDTA, 125 mM NaCl, 1% NP-40; IP with anti-TRAF6 or anti-NEMO antibody and Protein-G beads overnight at 4 °C; washes with 20 mM NaCl buffer; immunoblot for NUMBL
T1 sequence: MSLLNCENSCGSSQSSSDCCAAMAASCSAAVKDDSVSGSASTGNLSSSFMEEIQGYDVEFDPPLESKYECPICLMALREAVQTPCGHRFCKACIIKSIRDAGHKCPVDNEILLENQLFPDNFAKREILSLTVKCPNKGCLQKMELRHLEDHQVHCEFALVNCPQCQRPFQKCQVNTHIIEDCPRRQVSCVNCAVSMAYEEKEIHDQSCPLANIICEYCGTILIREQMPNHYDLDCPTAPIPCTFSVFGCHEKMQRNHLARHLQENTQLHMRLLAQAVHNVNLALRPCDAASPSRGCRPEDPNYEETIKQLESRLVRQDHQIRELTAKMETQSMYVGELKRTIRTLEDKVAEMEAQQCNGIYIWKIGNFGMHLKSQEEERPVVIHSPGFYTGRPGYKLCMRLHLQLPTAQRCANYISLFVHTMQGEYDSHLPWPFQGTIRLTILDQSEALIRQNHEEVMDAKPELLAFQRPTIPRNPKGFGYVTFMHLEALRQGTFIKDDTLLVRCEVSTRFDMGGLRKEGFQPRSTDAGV

[2] = molecular target: IKKγ/NEMO (UniProt O88522); test: as above

B1: NUMB-like (NUMBL) protein (protein, UniProt O08919 1-604)
chain: MSRSAAASGGPRRPDQHLSPAPCGASGPPETFRTESDGAGTMNKLRQSLRRRKPAYVPEASRPHQWQADEDAVRKGTCSFPVRYLGHVEVEESRGMHVCEDAVKKLKAMGRKSVKSVLWVSADGLRVVDDKTKDLLVDQTIEKVSFCAPDRNLDKAFSYICRDGTTRRWICHCFLALKDSGERLSHAVGCAFAACLERKQRREKECGVTAAFDASRTSFAREGSFRLSGGGRPAEREAGDKKKAEAAAAPAVAPGPAQPGHVSPTPATTSPGEKGEAGTPVAAGTTAAAIPRRHAPLEQLVRQGSFRGFPALSQKNSPFKRQLSLRLNELPSTLQRRTDFQVKGTVPEMEPPGTGDSDGINALCTQISSSFASAGAPASGPPPATTGTSAWGEPSVPAAAAFQPGHKRTPSEAERWLEEVSQVAKAQQQQQQQQQQQQQQQATSVPPMPTMAPTLQPFSAPVGPFDTAAAQVAVFLPPTHMQPPFVPAYPGLGYPPMPRVPVVGITPSQMVANAFCSAAQLQPQPATLLGKAGAFPPPAAPSAPGGQARPRPNGAPWPPEPAPAPAPELDPFEAQWAALEGKPAVEKPSNPFSGDLQKTFEIEL
binding [1]: binds | binding [2]: binds
